Data as given in PubChem BioAssay AID504764 (Drosophila RNAi Screening Center, 2011)
Screen: 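Knock-downs that raise or lower a Notch target reporter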 (primary screen). System: Drosophila Kc167 cells. Reagent: long dsRNA against Drosophila genes. Timing: about 5 days (4 days dsRNA, then 24 h after transfection). Treatment: transfection of constitutively active membrane-tethered Notch lacking the extracellular domain, read 24 h later. Measurement: 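Firefly luciferase from an E(spl)m3 reporter with active Notch, plus control-promoter and uninduced reporter wells for normalisation; unnormalised counts, duplicate wells a and b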. Scale: induced reporter light, run 1, well a and induced reporter light, run 1, well b: higher = more light from the Notch target reporter with active Notch; control promoter light, run 1, well a and control promoter light, run 1, well b: higher = more light from the viral control promoter (cell number, transfection, viability); uninduced reporter light, run 1, well a: higher = more light from the Notch target reporter without active Notch. Active means: 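Hit if the duplicate-averaged log2 ratio of induced to control-promoter light gives a plate-wise z beyond ±2, or induced to uninduced beyond ±1.8; weak-control or discordant-duplicate wells dropped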. Calls: active = modifier hit (raised or lowered Notch signal); inactive = not a hit.
The screen tested about 22,000 reagents; shown is a random part of those that have a named target and a result. Over the whole deposit, 403 (1.9%) were called active. 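Unnormalised raw counts per well; ratio z-scores behind the hit calls and whether each hit raises or lowers signal are not deposited.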 Names joined by + are all predicted targets of the reagent. Not given: the amount of reagent.

Gene,dsRNA,"induced reporter light, run 1, well a","induced reporter light, run 1, well b","control promoter light, run 1, well a","control promoter light, run 1, well b","uninduced reporter light, run 1, well a",call
BEAF-32,DRSC05927,1.13e5,85780,1.02e5,92555,6028,inactive
PPO3,DRSC04325,2.00e5,1.65e5,1.68e5,1.85e5,13945,inactive
Cyp317a1,DRSC07366,85585,77750,1.11e5,1.25e5,8050,inactive
Cont,DRSC12149,1.15e5,85575,65125,80395,5720,inactive
RpS10b,DRSC19561,94955,84640,1.35e5,1.83e5,10780,active
CG8539,DRSC10988,1.28e5,1.34e5,70200,31760,8475,active
Eglp2,DRSC04294,1.18e5,81565,62040,75735,6225,inactive
RFeSP,DRSC00702,1.17e5,1.45e5,99880,78295,8755,inactive
Ste:CG33238 + Ste:CG33241 + Ste:CG33236 + 11 more,DRSC19004,89305,79005,62815,85085,7595,inactive
Ste:CG33238 + Ste:CG33241 + Ste:CG33236 + 11 more,DRSC21260,1.13e5,96040,1.24e5,1.35e5,11110,inactive
beat-IIIb,DRSC02435,1.56e5,1.59e5,1.60e5,1.79e5,13470,inactive
CG7011 + Prp31,DRSC10760,1.30e5,1.64e5,1.24e5,1.46e5,13565,inactive
CG1896,DRSC15397,1.80e5,1.89e5,2.45e5,2.23e5,13150,inactive
NdufV3,DRSC19423,93850,92080,1.25e5,1.73e5,7482,inactive
Rme-8,DRSC07054,1.72e5,1.57e5,1.93e5,1.76e5,15430,inactive
Cyp6a22,DRSC07382,1.42e5,1.55e5,1.23e5,1.27e5,12135,inactive
Fum1,DRSC18344,2.42e5,2.55e5,2.64e5,2.84e5,16415,inactive
loh,DRSC01122,1.34e5,1.40e5,2.15e5,1.82e5,11095,inactive
loh,DRSC02943,1.19e5,1.52e5,70335,1.02e5,15128,inactive
CG31933,DRSC00457,1.22e5,1.26e5,1.10e5,78810,9565,inactive
CG11300,DRSC04104,1.37e5,1.34e5,1.40e5,1.28e5,7785,inactive
M7BP,DRSC05932,2.15e5,1.91e5,1.92e5,1.91e5,18235,inactive

Continued, starting with the last 2 of the part before.
Gene,dsRNA,"induced reporter light, run 1, well a","induced reporter light, run 1, well b","control promoter light, run 1, well a","control promoter light, run 1, well b","uninduced reporter light, run 1, well a",call
CG11300,DRSC04104,1.37e5,1.34e5,1.40e5,1.28e5,7785,inactive
M7BP,DRSC05932,2.15e5,1.91e5,1.92e5,1.91e5,18235,inactive
CG13004,DRSC19523,30855,29715,23480,22665,3990,inactive
OS9,DRSC02700,48785,41895,43350,35805,2492,inactive
CG9948,DRSC11104,1.09e5,84000,62690,50125,7545,inactive
CG12863,DRSC06203,94580,93990,1.31e5,99500,8720,inactive
CG10516,DRSC09738,1.72e5,1.51e5,2.73e5,2.36e5,8130,inactive
pr,DRSC03596,1.99e5,1.86e5,1.85e5,2.15e5,14205,inactive
CG12231,DRSC19445,77685,60045,81695,1.11e5,9700,inactive
CG14506,DRSC14858,1.69e5,1.47e5,1.83e5,1.99e5,12150,inactive
CG17801,DRSC15273,1.87e5,1.68e5,1.81e5,1.64e5,11925,inactive
spz6,DRSC04533,74635,98235,58700,70860,5465,inactive
CNT2,DRSC07073,69335,69590,80120,71675,7070,inactive
CycJ,DRSC08653,1.31e5,1.50e5,1.06e5,41630,9975,inactive
Nop60B,DRSC04627,1.57e5,2.05e5,1.59e5,1.47e5,11725,inactive
cer,DRSC05992,38880,37525,37310,42905,3745,inactive
bip1,DRSC11327,1.46e5,1.49e5,85340,58320,10642,inactive
Arr2,DRSC09670,1.20e5,1.17e5,1.46e5,1.09e5,6790,inactive
CG3894,DRSC01762,78750,67320,72150,94780,7685,inactive
CG3894,DRSC04012,1.77e5,1.99e5,3.00e5,3.13e5,12005,inactive
CG3894,DRSC04429,2.04e5,2.15e5,1.88e5,2.09e5,12485,inactive
Ccm3,DRSC15711,2.91e5,2.42e5,2.43e5,2.61e5,21960,inactive
CG4949,DRSC19926,2.40e5,1.57e5,1.56e5,1.36e5,13605,inactive
Lis-1,DRSC07459,1.06e5,99235,83255,1.29e5,6770,inactive
CG34325,DRSC19802,72470,63740,70810,85385,10560,inactive
CG34325,DRSC20200,50530,67955,64260,61610,7485,inactive
Tmtc1,DRSC00147,50280,42830,49035,58220,3585,inactive
Tmtc1,DRSC00151,1.19e5,1.20e5,1.72e5,1.59e5,8115,inactive
Tmtc1,DRSC00314,1.15e5,1.07e5,97180,75195,9275,inactive
Tmtc1,DRSC00411,1.28e5,1.32e5,99890,88910,8990,inactive
CG31068,DRSC13820,1.66e5,1.92e5,2.01e5,2.32e5,15200,inactive
spin,DRSC07176,1.25e5,1.43e5,1.96e5,2.26e5,8595,inactive
CG7634,DRSC11843,1.00e5,1.08e5,98320,73125,5920,inactive
tmod,DRSC13993,85265,1.31e5,1.25e5,1.23e5,9175,inactive
tmod,DRSC14314,77260,64960,1.16e5,1.16e5,5790,inactive
tmod,DRSC15076,1.41e5,1.36e5,1.89e5,1.86e5,12700,inactive
tmod,DRSC17062,1.66e5,1.80e5,2.71e5,3.12e5,12392,inactive
Ret,DRSC03409,1.89e5,1.84e5,1.51e5,1.49e5,14300,inactive
Ret,DRSC03410,52725,42410,47700,60000,2460,inactive
whe,DRSC20537,96045,1.02e5,85750,1.21e5,10455,inactive
Gr58a,DRSC03910,79845,67475,80620,86715,8930,inactive
Or59c,DRSC04633,2.13e5,1.82e5,1.38e5,1.89e5,14825,inactive
CG8142,DRSC20086,1.07e5,97045,88045,57880,7660,inactive
CG17821,DRSC06696,1.22e5,97545,1.01e5,1.29e5,8355,inactive
